Reference: PMC5591008

Target: Kek6-Flag (Drosophila)
Assay: co-IP; co-transfected S2 cells, 48 h after transfection, lysed in NP-40 buffer (50 mM Tris-HCl pH 8.0, 150 mM NaCl, 1% Igepal-630); IP with mouse anti-V5 or anti-HA and protein-A/G magnetic beads, or with anti-Flag magnetic beads; Western blot

B1: VAP33A-HA (protein, UniProt Q9W4N8 1-269)
chain: MSKSLFDLPLTIEPEHELRFVGPFTRPVVTIMTLRNNSALPLVFKIKTTAPKRYCVRPNIGKIIPFRSTQVEICLQPFVYDQQEKNKHKFMVQSVLAPMDADLSDLNKLWKDLEPEQLMDAKLKCVFEMPTAEANAENTSGGGAVGGGTGAAGGGSAGANTSSASAEALESKPKLSSEDKFKPSNLLETSESLDLLSGEIKALRECNIELRRENLHLKDQITRFRSSPAVKQVNEPYAPVLAEKQIPVFYIAVAIAAAIVSLLLGKFFL
  binding: binds

Results are given in words; binding and its absence hold for the method and conditions named. In cells and extracts the contact can be indirect. Binding can be weak; no strength is given. Tags and fused reporters may be left off the sequences shown.
